Experimental findings from paper PMC3804511 are described below.

By UniProt entry, the sequences of proteins in these tests, tags left out. Where a name states a change or a piece, a line headed by the entry shows the natural chain unless it says otherwise.
UniProt P38692: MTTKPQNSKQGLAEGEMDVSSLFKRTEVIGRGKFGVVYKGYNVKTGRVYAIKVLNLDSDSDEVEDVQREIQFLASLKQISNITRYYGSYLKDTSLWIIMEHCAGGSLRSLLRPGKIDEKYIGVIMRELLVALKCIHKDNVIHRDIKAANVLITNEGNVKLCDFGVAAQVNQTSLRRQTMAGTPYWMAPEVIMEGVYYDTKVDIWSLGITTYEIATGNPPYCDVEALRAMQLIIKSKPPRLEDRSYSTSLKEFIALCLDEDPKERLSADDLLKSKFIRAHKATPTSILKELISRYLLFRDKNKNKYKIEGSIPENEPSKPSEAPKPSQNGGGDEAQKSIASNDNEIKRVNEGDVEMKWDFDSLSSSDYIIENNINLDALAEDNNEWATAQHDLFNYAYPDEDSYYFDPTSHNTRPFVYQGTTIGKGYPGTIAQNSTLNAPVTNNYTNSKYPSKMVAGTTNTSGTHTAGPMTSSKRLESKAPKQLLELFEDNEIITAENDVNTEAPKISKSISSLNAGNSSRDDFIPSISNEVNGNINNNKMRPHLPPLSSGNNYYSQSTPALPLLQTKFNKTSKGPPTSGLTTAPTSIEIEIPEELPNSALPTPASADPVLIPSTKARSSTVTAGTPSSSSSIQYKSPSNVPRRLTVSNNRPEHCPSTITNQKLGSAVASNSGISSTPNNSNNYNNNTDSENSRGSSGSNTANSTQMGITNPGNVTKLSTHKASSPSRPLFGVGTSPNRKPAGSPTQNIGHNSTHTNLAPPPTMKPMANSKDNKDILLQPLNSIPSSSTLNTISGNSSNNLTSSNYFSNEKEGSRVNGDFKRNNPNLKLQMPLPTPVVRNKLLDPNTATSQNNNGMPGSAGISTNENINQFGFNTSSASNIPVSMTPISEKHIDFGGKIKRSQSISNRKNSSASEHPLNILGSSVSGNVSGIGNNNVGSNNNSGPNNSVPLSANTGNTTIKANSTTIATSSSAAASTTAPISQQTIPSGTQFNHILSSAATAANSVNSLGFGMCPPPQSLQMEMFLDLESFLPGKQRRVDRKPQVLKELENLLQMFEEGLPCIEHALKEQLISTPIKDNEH

The test has as its target T1, Hym1-13myc (S. cerevisiae) (UniProt P32464).
T1 sequence: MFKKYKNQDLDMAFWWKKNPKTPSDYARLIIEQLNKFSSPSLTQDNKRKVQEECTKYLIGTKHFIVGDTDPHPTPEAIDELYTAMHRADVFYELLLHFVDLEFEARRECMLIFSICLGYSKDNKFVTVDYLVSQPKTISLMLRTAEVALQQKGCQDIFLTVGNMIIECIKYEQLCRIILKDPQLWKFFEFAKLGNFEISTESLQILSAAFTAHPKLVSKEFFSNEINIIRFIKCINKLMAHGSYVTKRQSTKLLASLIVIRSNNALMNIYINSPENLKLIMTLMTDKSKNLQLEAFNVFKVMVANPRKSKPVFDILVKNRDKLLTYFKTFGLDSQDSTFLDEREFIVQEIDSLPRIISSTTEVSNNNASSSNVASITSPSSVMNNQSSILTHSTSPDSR
In words: co-IP; yeast cell lysates (bead beating) of strains with both tagged proteins; Hym1-myc immunoprecipitated with anti-c-Myc 9E10 on Dynabeads Protein G, Kic1-HA detected by anti-HA blot; also at 10 min intervals after release from GAL-CDC20 arrest.

These are yes or no findings as the source states them, for the method shown. In cells and extracts the contact can be indirect. A result given as binding can be weak or reduced; the word gives no strength. Sequences can lack the tags named with a protein.

In the case of “HA-tagged catalytically inactive Kic1 allele (kic1-DEAD) (from UniProt P38692) (enzyme)”, the binding entry is on record as “binds”.
